These results are taken from patent publication US4277393 (dated 1981).

*: point of attachment. Boc = CC(C)(C)OC(=O)*; Bn = c1ccc(C*)cc1

The data set can be described thus: general procedure: solution-phase peptide synthesis; DCC/HOSU, WSC/HOBT, azide method (isoamyl nitrite), ONP active esters. Conditions: coupling step.
Turning to BOC-Asn-Lys[Cbz(o-Cl)]-Phe-His-OMe, the step yield amounted to 49%. In the case of “BOC-Asn-Lys[Cbz(o-Cl)]-Phe-His-Thr(Bzl)-Phe-Pro-Gln-Thr(Bzl)-Ala-Ile-Gly-Val-Gly-Ala-Pro-NH2” it was 85.3%. In the case of “BOC-Asn-Lys[Cbz(o-Cl)]-Phe-His-Thr(Bzl)-Phe-Pro-OH” it was 90.7%. Turning to “BOC-Tyr[Bzl(Cl2)]-Thr(Bzl)-Gln-Asp(OBzl)-Phe-OH”, the step yield stood at 86%.

Consider Boc-QT(Bn)AIG-OH, for which the step yield was determined as 48.7%. In the case of Boc-VGAP-NH2 it was 85.9%.
